Test results taken from the supplement of paper PMC10849652.
The other results are listed elsewhere or left out.

Sequences of proteins named here, by UniProt entry; tags and fusion partners are left off. A change or cut given only in a name is not applied to a line headed by its entry.
UniProt O95807: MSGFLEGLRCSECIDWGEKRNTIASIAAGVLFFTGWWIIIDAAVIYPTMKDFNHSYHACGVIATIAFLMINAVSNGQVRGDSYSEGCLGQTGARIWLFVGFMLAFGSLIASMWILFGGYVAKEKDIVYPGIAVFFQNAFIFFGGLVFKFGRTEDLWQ
UniProt O76062: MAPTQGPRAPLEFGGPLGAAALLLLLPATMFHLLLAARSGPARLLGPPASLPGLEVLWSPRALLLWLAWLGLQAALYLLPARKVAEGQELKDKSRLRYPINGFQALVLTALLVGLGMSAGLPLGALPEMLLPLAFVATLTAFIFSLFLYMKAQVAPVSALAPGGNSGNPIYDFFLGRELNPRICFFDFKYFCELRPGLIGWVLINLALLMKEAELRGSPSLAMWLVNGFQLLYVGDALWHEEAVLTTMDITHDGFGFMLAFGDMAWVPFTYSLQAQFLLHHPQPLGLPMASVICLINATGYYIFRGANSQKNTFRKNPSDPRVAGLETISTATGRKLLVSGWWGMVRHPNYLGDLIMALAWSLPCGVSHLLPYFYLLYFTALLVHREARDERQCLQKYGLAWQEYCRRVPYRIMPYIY
UniProt Q5T4D3: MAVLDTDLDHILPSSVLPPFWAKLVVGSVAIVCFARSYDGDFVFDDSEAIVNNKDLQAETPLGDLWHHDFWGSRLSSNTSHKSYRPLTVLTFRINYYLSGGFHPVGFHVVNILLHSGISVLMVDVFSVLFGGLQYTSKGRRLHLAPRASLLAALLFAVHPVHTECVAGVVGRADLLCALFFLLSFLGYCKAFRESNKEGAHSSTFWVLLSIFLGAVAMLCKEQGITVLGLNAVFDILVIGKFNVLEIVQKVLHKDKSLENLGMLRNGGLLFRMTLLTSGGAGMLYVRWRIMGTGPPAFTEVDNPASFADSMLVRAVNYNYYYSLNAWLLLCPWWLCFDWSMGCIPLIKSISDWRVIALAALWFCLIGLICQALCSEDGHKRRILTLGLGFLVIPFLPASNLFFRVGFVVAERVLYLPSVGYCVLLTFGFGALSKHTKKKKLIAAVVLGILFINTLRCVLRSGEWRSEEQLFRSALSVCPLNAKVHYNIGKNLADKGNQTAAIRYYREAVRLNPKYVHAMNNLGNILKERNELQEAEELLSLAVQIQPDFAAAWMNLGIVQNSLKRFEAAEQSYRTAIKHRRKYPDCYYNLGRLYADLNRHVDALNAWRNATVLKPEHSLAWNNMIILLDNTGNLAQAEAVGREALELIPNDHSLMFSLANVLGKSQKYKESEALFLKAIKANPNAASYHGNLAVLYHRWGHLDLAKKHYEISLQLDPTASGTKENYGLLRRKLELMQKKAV
UniProt Q5SWH9: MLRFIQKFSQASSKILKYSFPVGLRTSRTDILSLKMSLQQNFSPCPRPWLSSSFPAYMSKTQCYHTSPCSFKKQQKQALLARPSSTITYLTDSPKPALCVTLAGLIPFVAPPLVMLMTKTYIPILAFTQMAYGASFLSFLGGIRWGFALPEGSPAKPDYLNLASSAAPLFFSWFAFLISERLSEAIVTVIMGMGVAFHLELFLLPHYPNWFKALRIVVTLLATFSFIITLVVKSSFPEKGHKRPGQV
UniProt P62328: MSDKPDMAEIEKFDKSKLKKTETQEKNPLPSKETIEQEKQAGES
UniProt Q9BX74: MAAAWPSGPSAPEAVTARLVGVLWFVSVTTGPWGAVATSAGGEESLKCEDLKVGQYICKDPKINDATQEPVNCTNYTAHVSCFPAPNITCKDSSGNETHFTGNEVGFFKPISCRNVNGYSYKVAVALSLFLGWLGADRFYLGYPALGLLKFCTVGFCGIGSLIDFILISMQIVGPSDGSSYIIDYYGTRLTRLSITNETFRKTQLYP
UniProt O75069: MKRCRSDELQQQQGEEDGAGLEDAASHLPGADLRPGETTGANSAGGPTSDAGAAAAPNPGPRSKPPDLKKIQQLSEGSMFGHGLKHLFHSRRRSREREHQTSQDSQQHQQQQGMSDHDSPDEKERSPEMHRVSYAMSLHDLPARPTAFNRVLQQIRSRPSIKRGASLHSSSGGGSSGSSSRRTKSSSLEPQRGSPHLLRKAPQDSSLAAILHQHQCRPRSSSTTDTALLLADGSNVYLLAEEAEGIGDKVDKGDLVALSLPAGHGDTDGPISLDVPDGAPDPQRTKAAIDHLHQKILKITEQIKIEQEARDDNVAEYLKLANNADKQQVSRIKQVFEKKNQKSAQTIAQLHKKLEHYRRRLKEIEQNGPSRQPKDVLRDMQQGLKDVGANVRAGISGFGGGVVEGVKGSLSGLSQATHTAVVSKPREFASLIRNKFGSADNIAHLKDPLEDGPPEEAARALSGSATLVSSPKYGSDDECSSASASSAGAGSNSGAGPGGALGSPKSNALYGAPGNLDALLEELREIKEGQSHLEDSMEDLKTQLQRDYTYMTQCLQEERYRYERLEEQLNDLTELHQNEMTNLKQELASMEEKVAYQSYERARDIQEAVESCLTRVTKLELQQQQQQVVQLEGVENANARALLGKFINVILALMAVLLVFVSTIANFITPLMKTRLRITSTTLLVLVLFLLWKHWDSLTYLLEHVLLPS
UniProt Q6PL24: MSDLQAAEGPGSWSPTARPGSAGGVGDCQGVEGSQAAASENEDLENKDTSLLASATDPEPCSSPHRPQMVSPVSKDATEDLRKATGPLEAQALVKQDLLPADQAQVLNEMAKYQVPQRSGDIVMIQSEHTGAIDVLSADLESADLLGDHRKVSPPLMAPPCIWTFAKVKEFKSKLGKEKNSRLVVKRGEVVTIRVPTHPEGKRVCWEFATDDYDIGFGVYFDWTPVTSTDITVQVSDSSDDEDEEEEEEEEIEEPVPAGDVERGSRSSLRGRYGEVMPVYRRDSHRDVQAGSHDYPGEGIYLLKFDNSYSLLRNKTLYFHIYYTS
UniProt Q08117: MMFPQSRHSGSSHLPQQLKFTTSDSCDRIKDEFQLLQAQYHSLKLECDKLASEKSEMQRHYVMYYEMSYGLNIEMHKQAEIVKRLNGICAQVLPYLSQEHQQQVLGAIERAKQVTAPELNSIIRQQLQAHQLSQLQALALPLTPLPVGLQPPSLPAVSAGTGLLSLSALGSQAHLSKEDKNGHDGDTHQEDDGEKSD
UniProt Q13829: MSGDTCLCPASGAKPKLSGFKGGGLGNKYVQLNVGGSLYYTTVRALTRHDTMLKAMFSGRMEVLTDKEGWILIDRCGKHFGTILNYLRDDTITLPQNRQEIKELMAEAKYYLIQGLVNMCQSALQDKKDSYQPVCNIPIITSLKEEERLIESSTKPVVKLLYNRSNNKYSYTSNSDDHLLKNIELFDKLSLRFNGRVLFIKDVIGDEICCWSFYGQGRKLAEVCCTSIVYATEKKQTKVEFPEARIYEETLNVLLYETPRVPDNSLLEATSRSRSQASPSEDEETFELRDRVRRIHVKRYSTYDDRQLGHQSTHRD
UniProt Q9BXS4: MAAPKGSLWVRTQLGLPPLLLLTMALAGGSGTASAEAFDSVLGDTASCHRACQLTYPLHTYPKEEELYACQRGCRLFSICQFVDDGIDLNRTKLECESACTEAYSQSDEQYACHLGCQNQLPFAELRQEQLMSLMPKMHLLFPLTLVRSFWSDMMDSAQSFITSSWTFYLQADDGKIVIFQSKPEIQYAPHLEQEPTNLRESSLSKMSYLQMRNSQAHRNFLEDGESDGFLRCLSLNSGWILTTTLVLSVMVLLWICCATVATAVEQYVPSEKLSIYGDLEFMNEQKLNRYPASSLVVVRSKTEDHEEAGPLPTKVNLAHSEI
UniProt Q9BSA9: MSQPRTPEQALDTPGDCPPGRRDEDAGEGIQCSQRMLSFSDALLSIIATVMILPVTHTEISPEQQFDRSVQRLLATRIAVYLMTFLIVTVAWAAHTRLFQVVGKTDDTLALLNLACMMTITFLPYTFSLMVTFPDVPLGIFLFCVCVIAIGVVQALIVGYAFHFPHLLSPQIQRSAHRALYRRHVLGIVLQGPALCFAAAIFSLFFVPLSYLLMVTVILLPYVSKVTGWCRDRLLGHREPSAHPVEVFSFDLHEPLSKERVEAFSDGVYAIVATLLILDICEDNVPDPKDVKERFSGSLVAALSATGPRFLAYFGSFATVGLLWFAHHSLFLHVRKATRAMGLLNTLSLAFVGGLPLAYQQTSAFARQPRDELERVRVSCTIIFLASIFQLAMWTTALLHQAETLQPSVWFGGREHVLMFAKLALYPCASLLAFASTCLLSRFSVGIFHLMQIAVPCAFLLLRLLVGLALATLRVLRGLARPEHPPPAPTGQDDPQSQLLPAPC
UniProt Q7Z403: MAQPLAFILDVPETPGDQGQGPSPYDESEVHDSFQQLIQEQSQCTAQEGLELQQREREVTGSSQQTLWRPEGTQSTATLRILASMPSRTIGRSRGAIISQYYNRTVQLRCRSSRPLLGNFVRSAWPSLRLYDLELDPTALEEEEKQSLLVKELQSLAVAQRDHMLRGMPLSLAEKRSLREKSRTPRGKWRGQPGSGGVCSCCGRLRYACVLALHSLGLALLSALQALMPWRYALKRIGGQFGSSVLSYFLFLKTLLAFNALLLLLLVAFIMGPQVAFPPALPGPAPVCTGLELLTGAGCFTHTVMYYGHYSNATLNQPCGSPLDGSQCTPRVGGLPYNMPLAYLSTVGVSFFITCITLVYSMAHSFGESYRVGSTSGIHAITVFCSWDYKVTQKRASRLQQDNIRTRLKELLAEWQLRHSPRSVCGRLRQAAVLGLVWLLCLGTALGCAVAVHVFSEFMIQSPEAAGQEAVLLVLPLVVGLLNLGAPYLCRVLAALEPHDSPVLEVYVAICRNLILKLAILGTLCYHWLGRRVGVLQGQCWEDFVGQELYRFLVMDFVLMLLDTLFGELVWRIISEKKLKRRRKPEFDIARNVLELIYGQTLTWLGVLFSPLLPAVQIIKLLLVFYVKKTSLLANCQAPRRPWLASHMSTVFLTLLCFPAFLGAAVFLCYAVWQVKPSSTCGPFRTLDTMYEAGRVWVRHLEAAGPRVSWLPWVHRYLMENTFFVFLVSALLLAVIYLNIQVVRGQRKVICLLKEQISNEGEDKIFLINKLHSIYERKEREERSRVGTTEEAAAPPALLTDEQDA
UniProt P21580: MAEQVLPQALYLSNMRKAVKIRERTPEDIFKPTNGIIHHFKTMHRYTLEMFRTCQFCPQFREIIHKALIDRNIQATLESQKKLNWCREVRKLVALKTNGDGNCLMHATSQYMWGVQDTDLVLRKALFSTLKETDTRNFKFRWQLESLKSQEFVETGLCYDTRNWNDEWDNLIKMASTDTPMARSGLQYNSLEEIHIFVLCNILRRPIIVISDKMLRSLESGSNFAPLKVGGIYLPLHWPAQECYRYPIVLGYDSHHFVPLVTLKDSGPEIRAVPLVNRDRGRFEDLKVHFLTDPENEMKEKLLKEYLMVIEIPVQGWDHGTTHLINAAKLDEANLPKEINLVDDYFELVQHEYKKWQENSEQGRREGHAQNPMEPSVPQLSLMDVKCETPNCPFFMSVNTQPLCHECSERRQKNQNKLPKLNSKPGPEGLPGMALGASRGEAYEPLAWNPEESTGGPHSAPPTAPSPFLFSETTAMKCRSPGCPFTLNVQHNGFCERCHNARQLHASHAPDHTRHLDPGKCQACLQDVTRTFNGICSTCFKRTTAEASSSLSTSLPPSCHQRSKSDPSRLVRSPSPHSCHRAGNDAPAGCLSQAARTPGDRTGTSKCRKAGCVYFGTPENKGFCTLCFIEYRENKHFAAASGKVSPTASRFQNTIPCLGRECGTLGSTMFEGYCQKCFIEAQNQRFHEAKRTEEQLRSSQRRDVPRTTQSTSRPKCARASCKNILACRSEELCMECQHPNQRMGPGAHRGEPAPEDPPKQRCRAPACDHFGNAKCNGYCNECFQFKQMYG

What was measured:
Assay in all cases: log2 fold change, soluble protein after heating vs DMSO (PISA); higher = thermal stabilisation; K562 cells, 10 uM, 30 min; active = over 0.2 and 3.5 SD of the protein, either way, in both replicates (recomputed)
crizotinib = compound: C[C@@H](Oc1cc(-c2cnn(C3CCNCC3)c2)cnc1N)c1c(Cl)ccc(F)c1Cl [crizotinib]
Outline: (§1)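 K562 cells at 2×10^6 cells/mL were treated for 30 min with 10 μM compound, and aliquots were heated for 3 min over 48°C-58°C before pooling. Extraction used PBS with 0.5% NP-40 at 4°C, and soluble protein was the supernatant after 21,000xg for 90 min, measured by TMTpro 16plex LC-MS/MS with channel sums equalised. Thermal stability values, relative to control samples and from duplicates, are log2 fold changes.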

[1] = compound: C[C@@H]1COCCN1C2=NC(=NC(=C2)C3(CC3)S(=O)(=O)C)C4=C5C=CNC5=CC=C4
Outline: as §1

[2] = compound: C[C@H](C1=CC=C(C=C1)C(=O)NC2=C3C=CNC3=NC=C2)N
Outline: as §1

tozasertib = compound: Cc1cc(Nc2cc(N3CCN(C)CC3)nc(Sc3ccc(NC(=O)C4CC4)cc3)n2)n[nH]1 [tozasertib]
Outline: as §1

doramapimod = compound: Cc1ccc(-n2nc(C(C)(C)C)cc2NC(=O)Nc2ccc(OCCN3CCOCC3)c3ccccc23)cc1 [doramapimod]
Outline: as §1

bafetinib = compound: Cc1ccc(NC(=O)c2ccc(CN3CC[C@H](N(C)C)C3)c(C(F)(F)F)c2)cc1Nc1nccc(-c2cncnc2)n1 [bafetinib]
Outline: as §1

nilotinib = compound: Cc1cn(-c2cc(NC(=O)c3ccc(C)c(Nc4nccc(-c5cccnc5)n4)c3)cc(C(F)(F)F)c2)cn1 [nilotinib]
Outline: as §1

[3] = compound: Cc1nc(Nc2n[nH]c3c2CN(C(=O)N[C@H](CN(C)C)c2ccccc2)C3(C)C)c2sccc2n1
Outline: as §1

[4] = compound: Cc1ncc(-c2ccnc(Nc3ccc(S(C)(=O)=O)cc3)n2)n1C(C)C
Outline: as §1

[5] = compound: Cn1cc(-c2ccc3c(c2)CCN3C(=O)Cc2cccc(C(F)(F)F)c2)c2c(N)ncnc21
Outline: as §1

tipifarnib = compound: Cn1cncc1[C@@](N)(c1ccc(Cl)cc1)c1ccc2c(c1)c(-c1cccc(Cl)c1)cc(=O)n2C [tipifarnib]
Outline: as §1

[6] = compound: CS(=O)(=O)c1ccc(-c2cnc(N)c(C(=O)Nc3ccccc3)n2)cc1
Outline: as §1

[7] = compound: Cc1cc(SCc2sc(-c3ccc(C(F)(F)F)cc3)nc2C)ccc1OCC(=O)O
Outline: as §1

ispinesib = compound: Cc1ccc(C(=O)N(CCCN)[C@@H](c2nc3cc(Cl)ccc3c(=O)n2Cc2ccccc2)C(C)C)cc1 [ispinesib]
Outline: as §1

dasatinib = compound: Cc1nc(Nc2ncc(C(=O)Nc3c(C)cccc3Cl)s2)cc(N2CCN(CCO)CC2)n1 [dasatinib]
Outline: as §1

[8] = compound: Cn1cc(-c2ccc3nnc(C(F)(F)c4ccc5ncccc5c4)n3n2)cn1
Outline: as §1

duvelisib = compound: C[C@H](Nc1ncnc2nc[nH]c12)c1cc2cccc(Cl)c2c(=O)n1-c1ccccc1 [duvelisib]
Outline: as §1

gandotinib = compound: Cc1cc(Nc2cc(CN3CCOCC3)c3nc(C)c(Cc4ccc(Cl)cc4F)n3n2)n[nH]1 [gandotinib]
Outline: as §1

[9] = compound: Cc1cccc(CC(=O)N2CCc3c2ccc(-c2cn(C)c4ncnc(N)c24)c3F)n1
Outline: as §1

mubritinib = compound: FC(F)(F)c1ccc(/C=C/c2nc(COc3ccc(CCCCn4ccnn4)cc3)co2)cc1 [mubritinib]
Outline: as §1

Measured: log2 fold change

TMEM50A (UniProt O95807)
inactive: crizotinib -0.192 | [1] -0.111 | [2] -0.26 | tozasertib 0.002 | doramapimod -0.055 | bafetinib -0.129 | nilotinib -0.167 | [3] -0.056 | [4] 0.03 | [5] 0.021 | tipifarnib 0.14

TM7SF2 (UniProt O76062)
inactive: [6] -0.044 | [2] 0.028 | [7] 0.028 | ispinesib -0.451 | nilotinib -0.113 | [3] -0.059 | dasatinib -0.25 | [4] 0.018 | [5] 0.035 | [8] 0.046 | tipifarnib -0.067

TMTC4 isoform 3 (UniProt Q5T4D3)
inactive: crizotinib -0.002 | duvelisib -0.198 | [7] -0.084 | doramapimod -0.014 | bafetinib 0.151 | dasatinib 0.025

TMEM69 (UniProt Q5SWH9)
inactive: crizotinib 0.056 | [2] -0.219 | gandotinib -0.09 | tozasertib 0.064 | doramapimod 0.025 | ispinesib 0.043 | bafetinib 0.009 | [9] -0.009 | nilotinib -0.015 | [3] 0.075 | [4] 0.007 | [5] 0.012 | [8] -0.138 | tipifarnib -0.026 | mubritinib -0.197

TMSB4X (UniProt P62328)
inactive: crizotinib 0.236 | [1] -0.426 | [2] 0.146 | duvelisib -0.36 | [7] -0.345 | doramapimod -0.778 | ispinesib -0.113 | bafetinib -0.82 | nilotinib -0.05 | [3] 0.121 | dasatinib 0.225 | [4] -0.496 | [5] -0.283 | [8] -0.117 | tipifarnib 0.527 | mubritinib 0.311

TM2D1 (UniProt Q9BX74)
inactive: [6] 0.231 | duvelisib 0.218 | [7] 0.082 | dasatinib -0.044

TMCC2 (UniProt O75069)
inactive: [2] 0.283 | duvelisib 0.109 | [7] -0.07 | nilotinib 0.01 | [3] -0.149 | dasatinib 0 | [4] -0.085 | [5] 0.245

Two entries drawn at random from those above, as already listed:
TMCC2 (UniProt O75069)
inactive: [2] 0.283 | duvelisib 0.109 | [7] -0.07 | nilotinib 0.01 | [3] -0.149 | dasatinib 0 | [4] -0.085 | [5] 0.245

TMEM69 (UniProt Q5SWH9)
inactive: crizotinib 0.056 | [2] -0.219 | gandotinib -0.09 | tozasertib 0.064 | doramapimod 0.025 | ispinesib 0.043 | bafetinib 0.009 | [9] -0.009 | nilotinib -0.015 | [3] 0.075 | [4] 0.007 | [5] 0.012 | [8] -0.138 | tipifarnib -0.026 | mubritinib -0.197

(continued)

TMED8 (UniProt Q6PL24)
inactive: crizotinib -0.106 | [2] 0.061 | duvelisib -0.006 | gandotinib -0.007 | tozasertib 0.041 | [7] 0.225 | doramapimod 0.194 | ispinesib 0.082 | bafetinib 0.115 | [9] 0.046 | nilotinib -0.197 | [3] 0.01 | dasatinib -0.067 | [4] 0.046 | [5] 0.001 | [8] -0.028 | tipifarnib -0.027 | mubritinib 0.02

TLE5 isoform 2 (UniProt Q08117)
inactive: [2] -0.062 | duvelisib 0.005 | gandotinib 0.034 | [7] 0.073 | ispinesib -0.023 | [9] -0.03 | nilotinib 0.045 | [3] 0.001 | dasatinib -0.063 | [4] 0.002 | [5] 0.041 | [8] 0.1 | tipifarnib -0.022 | mubritinib -0.014

TNFAIP1 (UniProt Q13829)
inactive: crizotinib 0.053 | [1] 0.174 | [2] -0.047 | duvelisib -0.149 | tozasertib -0.023 | [7] 0.196 | doramapimod -0.036 | ispinesib 0.244 | bafetinib -0.003 | nilotinib -0.009 | [3] -0.019 | dasatinib -0.153 | [4] -0.015 | [5] 0.041 | [8] 0.003 | tipifarnib 0.154 | mubritinib 0.11

TMEM59 (UniProt Q9BXS4)
inactive: crizotinib 0.04 | [2] 0.144 | duvelisib 0.024 | gandotinib -0.098 | tozasertib 0.074 | [7] 0.048 | doramapimod 0.129 | ispinesib 0.411 | [9] -0.087 | nilotinib 0.019 | [3] -0.117 | dasatinib 0.043 | [4] 0.059 | [5] -0.04 | [8] -0.486 | tipifarnib 0.08 | mubritinib 0.033

TMEM175 (UniProt Q9BSA9)
inactive: duvelisib 0.128 | tozasertib 0.028 | [7] 0.139 | dasatinib -0.139 | tipifarnib 0.158

TMEM129
inactive: duvelisib 0.183 | tozasertib -0.066 | [7] -0.022 | nilotinib -0.239 | [3] -0.096 | dasatinib 0.13 | [4] 0.08 | tipifarnib -0.038

TMC6 (UniProt Q7Z403)
inactive: crizotinib -0.217 | [2] 0.036 | duvelisib -0.031 | gandotinib -0.012 | tozasertib -0.026 | [7] 0.016 | doramapimod 0.104 | ispinesib -0.104 | [9] 0.07 | nilotinib -0.187 | [3] 0.047 | dasatinib -0.003 | [4] 0.207 | [5] -0.172 | [8] -0.196 | tipifarnib 0.197 | mubritinib 0.049

TNFAIP3 (UniProt P21580)
inactive: crizotinib 0 | [1] -0.019 | [2] 0.056 | gandotinib -0.046 | doramapimod 0.003 | ispinesib 0.027 | bafetinib -0.028 | [9] -0.044 | nilotinib 0.049 | [3] -0.105 | [4] -0.07 | [5] -0.011 | [8] -0.029 | tipifarnib -0.005 | mubritinib -0.099

TMEM131 (UniProt Q92545)
inactive: [6] 0.239 | gandotinib 0 | tozasertib -0.152 | [9] -0.09
